# From article doi:10.1101/2020.05.01.072124
# T1: MYC-BirA-ATOX1, O00244
# T1 chain: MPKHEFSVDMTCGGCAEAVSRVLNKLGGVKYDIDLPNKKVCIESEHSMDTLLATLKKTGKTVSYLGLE
# Biological target: T1, MYC-BirA-ATOX1, O00244
# Assay: proximity labelling
# Settings: remark: other sources report otherwise
binder,measurement,value
"ATP7A, Q04656 1-1500 (protein) MDPSMGVNSVTISVEGMTCNSCVWTIEQQIGKVNGVHHIKVSLEEKNATIIYDPKLQTPKTLQEAIDDMGFDAVIHNPDPLPVLTDTLFLTVTASLTLPWDHIQSTLLKTKGVTDIKIYPQKRTVAVTIIPSIVNANQIKELVPELSLDTGTLEKKSGACEDHSMAQAGEVVLKMKVEGMTCHSCTSTIEGKIGKLQGVQRIKVSLDNQEATIVYQPHLISVEEMKKQIEAMGFPAFVKKQPKYLKLGAIDVERLKNTPVKSSEGSQQRSPSYTNDSTATFIIDGMHCKSCVSNIESTLSALQYVSSIVVSLENRSAIVKYNASSVTPESLRKAIEAVSPGLYRVSITSEVESTSNSPSSSSLQKIPLNVVSQPLTQETVINIDGMTCNSCVQSIEGVISKKPGVKSIRVSLANSNGTVEYDPLLTSPETLRGAIEDMGFDATLSDTNEPLVVIAQPSSEMPLLTSTNEFYTKGMTPVQDKEEGKNSSKCYIQVTGMTCASCVANIERNLRREEGIYSILVALMAGKAEVRYNPAVIQPPMIAEFIRELGFGATVIENADEGDGVLELVVRGMTCASCVHKIESSLTKHRGILYCSVALATNKAHIKYDPEIIGPRDIIHTIESLGFEASLVKKDRSASHLDHKREIRQWRRSFLVSLFFCIPVMGLMIYMMVMDHHFATLHHNQNMSKEEMINLHSSMFLERQILPGLSVMNLLSFLLCVPVQFFGGWYFYIQAYKALKHKTANMDVLIVLATTIAFAYSLIILLVAMYERAKVNPITFFDTPPMLFVFIALGRWLEHIAKGKTSEALAKLISLQATEATIVTLDSDNILLSEEQVDVELVQRGDIIKVVPGGKFPVDGRVIEGHSMVDESLITGEAMPVAKKPGSTVIAGSINQNGSLLICATHVGADTTLSQIVKLVEEAQTSKAPIQQFADKLSGYFVPFIVFVSIATLLVWIVIGFLNFEIVETYFPGYNRSISRTETIIRFAFQASITVLCIACPCSLGLATPTAVMVGTGVGAQNGILIKGGEPLEMAHKVKVVVFDKTGTITHGTPVVNQVKVLTESNRISHHKILAIVGTAESNSEHPLGTAITKYCKQELDTETLGTCIDFQVVPGCGISCKVTNIEGLLHKNNWNIEDNNIKNASLVQIDASNEQSSTSSSMIIDAQISNALNAQQYKVLIGNREWMIRNGLVINNDVNDFMTEHERKGRTAVLVAVDDELCGLIAIADTVKPEAELAIHILKSMGLEVVLMTGDNSKTARSIASQVGITKVFAEVLPSHKVAKVKQLQEEGKRVAMVGDGINDSPALAMANVGIAIGTGTDVAIEAADVVLIRNDLLDVVASIDLSRKTVKRIRINFVFALIYNLVGIPIAAGVFMPIGLVLQPWMGSAAMAASSVSVVLSSLFLKLYRKPTYESYELPARSQIGQKSPSEISVHVGIDDTSRNSPKLGLLDRIVNYSRASINSLLSDKRSLNSVVTSEPDKHSLLVGDFREDDDTAL",binding,binds

# No constants are given. Whether binding was seen depends on the method and setting. Binding seen in cells or lysates may run through a third protein. A yes stands for co-enrichment or nearness to the bait. Other partners may have been found. Where a sequence is shown, tags or fusion partners need not be part of it.
